Literature values as cited in patent US8846104B2, “Pharmaceutical compositions for the deterrence and/or prevention of abuse” (priority 2006, dated 2014).
Structures can show the parent of a compound that is named as a salt.

O=C1CC[C@@]2(O)[C@H]3Cc4ccc(O)c5c4[C@@]2(CCN3CC2CC2)[C@H]1O5 [hydrochloride salt of naltrexone, naltrexone]
soluble in water: about 100 mg/cc
